Measured values reported in paper PMC12035898.
No constants are given. Whether binding was seen depends on the method and setting. In cells and extracts the contact can be indirect. Some entries that bind do so weakly or less than the wild type.

Tests used:
Test in all cases: co-IP; DYRK4 truncation plasmids and pHBV1.3 co-transfected in Huh7 cells for 48 h; FLAG-beads enrichment (Fig. 5F)
[1] = target: T1, DYRK4 K-domain (102-400 aa), kinase domain (UniProt Q9NR20)
T1 sequence: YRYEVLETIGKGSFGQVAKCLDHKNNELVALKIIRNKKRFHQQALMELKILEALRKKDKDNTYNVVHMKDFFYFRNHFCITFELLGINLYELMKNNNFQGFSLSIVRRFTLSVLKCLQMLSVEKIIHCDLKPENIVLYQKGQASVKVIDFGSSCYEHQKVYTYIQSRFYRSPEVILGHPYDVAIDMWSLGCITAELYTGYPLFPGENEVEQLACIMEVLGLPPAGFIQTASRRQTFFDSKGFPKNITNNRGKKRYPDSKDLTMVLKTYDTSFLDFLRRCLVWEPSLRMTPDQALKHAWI

[2] = target: T2, DYRK4 C-domain (401-520 aa) (UniProt Q9NR20)
T2 sequence: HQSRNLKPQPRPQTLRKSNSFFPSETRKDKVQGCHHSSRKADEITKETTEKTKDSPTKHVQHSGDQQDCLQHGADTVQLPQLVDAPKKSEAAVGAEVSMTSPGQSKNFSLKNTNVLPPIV

[3] = target: T3, DYRK4 N-domain (1-101 aa) (UniProt Q9NR20)
T3 sequence: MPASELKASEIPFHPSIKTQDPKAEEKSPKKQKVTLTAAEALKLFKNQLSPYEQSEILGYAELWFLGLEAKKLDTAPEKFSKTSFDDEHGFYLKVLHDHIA

binding [1]: binds | binding [2]: no binding | binding [3]: no binding
B1: TAB1 in the co-IP with DYRK4 truncations (Huh7 cells) (protein, UniProt Q15750 1-504)
chain: MAAQRRSLLQSEQQPSWTDDLPLCHLSGVGSASNRSYSADGKGTESHPPEDSWLKFRSENNCFLYGVFNGYDGNRVTNFVAQRLSAELLLGQLNAEHAEADVRRVLLQAFDVVERSFLESIDDALAEKASLQSQLPEGVPQHQLPPQYQKILERLKTLEREISGGAMAVVAVLLNNKLYVANVGTNRALLCKSTVDGLQVTQLNVDHTTENEDELFRLSQLGLDAGKIKQVGIICGQESTRRIGDYKVKYGYTDIDLLSAAKSKPIIAEPEIHGAQPLDGVTGFLVLMSEGLYKALEAAHGPGQANQEIAAMIDTEFAKQTSLDAVAQAVVDRVKRIHSDTFASGGERARFCPRHEDMTLLVRNFGYPLGEMSQPTPSPAPAAGGRVYPVSVPYSSAQSTSKTSVTLSLVMPSQGQMVNGAHSASTLDEATPTLTNQSPTLTLQSTNTHTQSSSSSSDGGLFRSRPAHSLPPGEDGRVEPYVDFAEFYRLWSVDHGEQSVVTAP
